# Patent US20120108532A1, “PHARMACEUTICAL COMPOSITION FOR NEUROPROTECTIVE TREATMENT IN PATIENTS WITH ICTUS COMPRISING CITICOLINE AND URIC ACID” (HOSPITAL CLINIC PROVINCIAL DE BARCELONA, priority 2009, published 2012)
# At least one structure is not confirmed: it was looked up by name or label, or the drawing left a doubt.
# Test system: mixed cultures of neurons/glia
# Assay: Lactate dehydrogenase (LDH) release assay of cell death after oxygen and glucose deprivation (OGD)
# Type: cell-based, rat
# Conditions: 100 μM, added 60 min before, during and after 90 min OGD; read 3 hours 30 minutes after OGD; FIG. 1
# Experimental: Mixed cultures of neurons/glia of 18-day rat fetal embryos Sprague-Dawley were prepared as described in Petegnief, V. Saura, J. De Gregorio-Rocasolano, N., and Paul, S. M. (2001) Neuroscience 104, 223-234. The cells were suspended in minimum essential medium (MEM) supplemented by 10% fetal bovine serum and 100 μg/ml gentamicin and placed on 24-well plates previously covered with poly-L-lysine (5 μg/ml) (Nunc, Roskilde, Denmark) with a density of 0.6×10^6 cells/well and cultured at 37° C. in an incubator with 95% atmospheric air/5% CO2. The in vitro medium was partially changed on days 4, 7 and 10 (DIV) with MEM supplemented with B27. The cultures were used in 11/13 DIV. 11.9 mM uric acid was prepared in 1.35 mM lithium carbonate and 5% mannitol. […]
# For the lactate dehydrogenase activity assay, cell death was estimated 3 hours 30 minutes after OGD and next lactate dehydrogenase (LDH) activity was measured released in the medium according to a modification of the method of (Wroblewski and LaDue, […]). The reduction of absorbance in 0.75 NADH to 340 nm was followed by a phosphate buffer ([…], pH 7.4) in presence of 4.2 mM pyruvic acid as substrate.
smiles,measurement,value
C[N+](C)(C)CCOP(=O)(O)OP(=O)([O-])OC[C@H]1O[C@@H](n2ccc(N)nc2=O)[C@H](O)[C@@H]1O [citicoline],cell viability in ischemic conditions (LDH activity released in the medium),did not improve the cell viability
